Some of the results follow.
compound: CC[C@H](C)[C@@H](C(=O)N[C@@H]([C@@H](C)O)C(=O)N[C@@H](CC(C)C)C(=O)[C@]1(CO1)C)NC(=O)[C@H]([C@@H](C)CC)N(C)C(=O)C [epoxomicin]; assay: log2 fold change, soluble protein after heating vs DMSO (PISA); higher = thermal stabilisation; K562 cells, 10 uM, 30 min; active = over 0.2 and 3.5 SD of the protein, either way, in both replicates (recomputed)
In short: (§1)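 Soluble protein was defined as the supernatant after 21,000xg for 90 min. It came from K562 cells at 2×10^6 cells/mL given 10 μM compound for 30 min, heated in aliquots for 3 min across 48°C-58°C, pooled, and extracted in PBS with 0.5% NP-40 at 4°C, and was quantified by TMTpro 16plex LC-MS/MS with equalised channel sums. Thermal stability against control samples, from duplicates, is reported as log2 fold change.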

Amino acid sequences for entries named in this document (tags omitted). A change or cut given only in a name is not applied to a line headed by its entry.
UniProt Q9H0U3: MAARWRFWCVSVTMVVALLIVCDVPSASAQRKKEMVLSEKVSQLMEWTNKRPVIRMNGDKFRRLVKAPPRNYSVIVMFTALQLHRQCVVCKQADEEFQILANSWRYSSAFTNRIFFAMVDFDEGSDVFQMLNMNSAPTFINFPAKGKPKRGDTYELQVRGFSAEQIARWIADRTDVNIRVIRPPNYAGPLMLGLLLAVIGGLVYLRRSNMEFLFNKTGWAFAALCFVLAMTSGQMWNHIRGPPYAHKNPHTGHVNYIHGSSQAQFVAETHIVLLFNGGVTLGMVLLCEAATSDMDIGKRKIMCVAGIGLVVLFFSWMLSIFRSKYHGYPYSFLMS
UniProt Q9Y608: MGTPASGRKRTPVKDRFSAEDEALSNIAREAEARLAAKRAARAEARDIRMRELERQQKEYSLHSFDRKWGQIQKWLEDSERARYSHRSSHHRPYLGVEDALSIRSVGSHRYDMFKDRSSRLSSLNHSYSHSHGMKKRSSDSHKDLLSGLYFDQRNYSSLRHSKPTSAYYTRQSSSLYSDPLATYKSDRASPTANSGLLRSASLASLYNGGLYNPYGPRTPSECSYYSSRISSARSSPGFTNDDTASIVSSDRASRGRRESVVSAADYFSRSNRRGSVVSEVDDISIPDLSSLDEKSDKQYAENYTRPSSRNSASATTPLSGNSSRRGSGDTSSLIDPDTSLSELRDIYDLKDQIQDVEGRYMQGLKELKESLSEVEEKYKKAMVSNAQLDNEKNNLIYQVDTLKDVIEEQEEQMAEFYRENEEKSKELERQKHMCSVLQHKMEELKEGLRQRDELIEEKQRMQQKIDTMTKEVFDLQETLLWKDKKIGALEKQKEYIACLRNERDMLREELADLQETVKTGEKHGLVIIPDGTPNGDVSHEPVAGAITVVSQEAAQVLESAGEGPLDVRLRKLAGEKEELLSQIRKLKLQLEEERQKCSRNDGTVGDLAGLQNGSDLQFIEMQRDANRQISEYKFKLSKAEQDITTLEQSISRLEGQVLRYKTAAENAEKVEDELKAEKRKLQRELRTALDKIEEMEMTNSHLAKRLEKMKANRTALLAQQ
UniProt Q9BQ69: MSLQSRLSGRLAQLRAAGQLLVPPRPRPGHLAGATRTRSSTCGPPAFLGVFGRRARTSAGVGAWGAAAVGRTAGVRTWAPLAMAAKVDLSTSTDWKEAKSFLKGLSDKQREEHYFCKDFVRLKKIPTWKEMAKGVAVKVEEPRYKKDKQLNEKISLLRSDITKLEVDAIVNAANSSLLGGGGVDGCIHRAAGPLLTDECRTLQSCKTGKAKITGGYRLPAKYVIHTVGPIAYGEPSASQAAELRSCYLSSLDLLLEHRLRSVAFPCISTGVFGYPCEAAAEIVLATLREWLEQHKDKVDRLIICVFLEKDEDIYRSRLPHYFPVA
UniProt Q5U5X0: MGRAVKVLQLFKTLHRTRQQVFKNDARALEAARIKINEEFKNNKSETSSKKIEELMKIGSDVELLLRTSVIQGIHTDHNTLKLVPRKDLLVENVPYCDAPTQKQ
UniProt O60732: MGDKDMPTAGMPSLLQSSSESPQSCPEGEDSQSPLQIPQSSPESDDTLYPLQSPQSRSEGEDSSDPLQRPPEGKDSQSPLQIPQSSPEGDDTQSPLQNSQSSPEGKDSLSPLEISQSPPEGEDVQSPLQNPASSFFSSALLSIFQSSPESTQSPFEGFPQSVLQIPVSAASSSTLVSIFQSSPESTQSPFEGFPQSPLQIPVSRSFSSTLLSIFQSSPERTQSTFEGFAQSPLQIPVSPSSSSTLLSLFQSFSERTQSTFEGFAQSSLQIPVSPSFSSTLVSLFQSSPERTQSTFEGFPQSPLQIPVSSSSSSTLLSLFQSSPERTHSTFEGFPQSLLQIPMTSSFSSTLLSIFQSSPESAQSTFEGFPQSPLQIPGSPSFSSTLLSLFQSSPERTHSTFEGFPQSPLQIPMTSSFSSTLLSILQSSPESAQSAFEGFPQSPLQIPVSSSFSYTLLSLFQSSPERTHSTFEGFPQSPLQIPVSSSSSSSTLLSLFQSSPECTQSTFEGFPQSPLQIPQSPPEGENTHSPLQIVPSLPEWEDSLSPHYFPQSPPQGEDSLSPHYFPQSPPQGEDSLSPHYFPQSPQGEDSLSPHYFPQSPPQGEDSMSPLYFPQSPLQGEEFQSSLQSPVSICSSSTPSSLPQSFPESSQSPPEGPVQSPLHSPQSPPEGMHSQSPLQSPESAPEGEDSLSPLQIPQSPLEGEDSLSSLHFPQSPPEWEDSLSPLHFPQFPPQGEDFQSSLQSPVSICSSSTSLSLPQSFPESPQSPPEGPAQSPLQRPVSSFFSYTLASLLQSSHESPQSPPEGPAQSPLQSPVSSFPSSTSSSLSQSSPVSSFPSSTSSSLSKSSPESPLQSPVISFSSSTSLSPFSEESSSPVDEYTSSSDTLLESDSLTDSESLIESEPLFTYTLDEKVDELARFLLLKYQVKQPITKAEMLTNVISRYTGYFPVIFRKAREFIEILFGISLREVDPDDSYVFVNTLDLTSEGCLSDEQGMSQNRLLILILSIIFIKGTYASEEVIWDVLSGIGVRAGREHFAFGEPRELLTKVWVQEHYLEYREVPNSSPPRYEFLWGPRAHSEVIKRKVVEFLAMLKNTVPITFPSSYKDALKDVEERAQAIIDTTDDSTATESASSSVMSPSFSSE
UniProt Q9UK45: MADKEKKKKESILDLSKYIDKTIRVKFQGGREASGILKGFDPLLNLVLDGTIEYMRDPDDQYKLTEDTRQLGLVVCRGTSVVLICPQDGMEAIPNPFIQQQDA
UniProt P45985: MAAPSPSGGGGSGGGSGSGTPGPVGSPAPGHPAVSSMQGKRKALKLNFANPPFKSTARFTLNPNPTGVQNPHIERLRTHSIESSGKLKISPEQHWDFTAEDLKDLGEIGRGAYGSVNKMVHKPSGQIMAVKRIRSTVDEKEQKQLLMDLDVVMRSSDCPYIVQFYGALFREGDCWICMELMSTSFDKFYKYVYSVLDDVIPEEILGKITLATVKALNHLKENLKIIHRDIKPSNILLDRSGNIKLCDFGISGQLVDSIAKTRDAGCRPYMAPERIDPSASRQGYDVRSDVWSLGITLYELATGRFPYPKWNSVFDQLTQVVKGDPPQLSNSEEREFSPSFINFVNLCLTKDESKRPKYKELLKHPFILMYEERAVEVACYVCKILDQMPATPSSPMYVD
UniProt Q9NQ48: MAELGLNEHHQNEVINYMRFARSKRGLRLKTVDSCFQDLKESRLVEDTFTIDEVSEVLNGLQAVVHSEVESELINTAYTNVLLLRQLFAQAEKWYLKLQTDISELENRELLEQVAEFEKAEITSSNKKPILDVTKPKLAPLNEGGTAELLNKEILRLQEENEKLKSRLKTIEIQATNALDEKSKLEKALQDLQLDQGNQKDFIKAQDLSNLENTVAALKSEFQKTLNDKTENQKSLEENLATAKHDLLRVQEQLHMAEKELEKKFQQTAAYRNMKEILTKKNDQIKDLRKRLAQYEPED
UniProt O00754: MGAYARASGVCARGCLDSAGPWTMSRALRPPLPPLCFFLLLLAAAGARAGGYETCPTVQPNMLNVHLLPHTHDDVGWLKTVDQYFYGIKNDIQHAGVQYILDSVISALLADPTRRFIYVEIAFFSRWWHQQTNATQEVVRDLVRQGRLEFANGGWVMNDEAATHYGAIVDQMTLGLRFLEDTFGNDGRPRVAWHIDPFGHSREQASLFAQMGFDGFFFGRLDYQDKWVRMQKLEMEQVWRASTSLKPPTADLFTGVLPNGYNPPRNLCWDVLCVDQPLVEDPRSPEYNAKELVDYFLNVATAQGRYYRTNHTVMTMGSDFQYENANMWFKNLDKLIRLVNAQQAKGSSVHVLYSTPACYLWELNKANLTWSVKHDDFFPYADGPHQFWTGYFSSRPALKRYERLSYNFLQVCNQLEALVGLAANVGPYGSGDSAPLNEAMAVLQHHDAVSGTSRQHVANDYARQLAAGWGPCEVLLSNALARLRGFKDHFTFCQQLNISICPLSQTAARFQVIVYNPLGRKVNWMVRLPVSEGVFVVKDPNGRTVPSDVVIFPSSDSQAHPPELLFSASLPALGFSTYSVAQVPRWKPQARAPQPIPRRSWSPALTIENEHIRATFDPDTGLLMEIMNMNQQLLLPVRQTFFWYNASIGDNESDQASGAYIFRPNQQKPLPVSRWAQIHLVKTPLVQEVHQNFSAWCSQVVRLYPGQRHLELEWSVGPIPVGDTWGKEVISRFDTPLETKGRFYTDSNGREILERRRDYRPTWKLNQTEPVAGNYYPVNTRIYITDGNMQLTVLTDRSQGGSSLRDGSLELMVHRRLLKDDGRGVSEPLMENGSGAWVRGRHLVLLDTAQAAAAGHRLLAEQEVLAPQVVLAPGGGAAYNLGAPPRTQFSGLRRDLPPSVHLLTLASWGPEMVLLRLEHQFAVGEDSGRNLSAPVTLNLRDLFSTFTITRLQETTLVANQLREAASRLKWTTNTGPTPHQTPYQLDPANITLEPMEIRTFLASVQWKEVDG
UniProt Q15691: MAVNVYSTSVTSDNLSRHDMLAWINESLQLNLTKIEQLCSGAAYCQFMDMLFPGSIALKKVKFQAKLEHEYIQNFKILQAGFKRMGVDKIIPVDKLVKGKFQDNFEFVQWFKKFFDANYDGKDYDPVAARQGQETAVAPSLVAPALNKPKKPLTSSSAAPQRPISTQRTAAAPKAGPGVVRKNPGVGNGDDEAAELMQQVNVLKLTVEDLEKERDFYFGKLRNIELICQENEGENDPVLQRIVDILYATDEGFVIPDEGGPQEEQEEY
UniProt O15479: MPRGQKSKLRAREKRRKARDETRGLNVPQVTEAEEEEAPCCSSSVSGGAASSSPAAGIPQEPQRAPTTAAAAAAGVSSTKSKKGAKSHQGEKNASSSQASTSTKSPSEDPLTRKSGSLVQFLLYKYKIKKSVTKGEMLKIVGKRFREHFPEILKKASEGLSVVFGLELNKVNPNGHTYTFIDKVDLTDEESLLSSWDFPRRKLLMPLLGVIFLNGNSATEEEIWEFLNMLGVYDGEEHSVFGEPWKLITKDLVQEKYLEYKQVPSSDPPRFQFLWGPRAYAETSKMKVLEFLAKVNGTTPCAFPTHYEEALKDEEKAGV
UniProt P55145: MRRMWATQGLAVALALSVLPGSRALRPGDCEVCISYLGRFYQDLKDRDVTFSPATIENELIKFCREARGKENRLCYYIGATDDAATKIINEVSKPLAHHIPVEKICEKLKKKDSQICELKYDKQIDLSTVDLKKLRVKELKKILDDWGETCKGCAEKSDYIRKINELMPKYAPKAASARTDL
UniProt O43325: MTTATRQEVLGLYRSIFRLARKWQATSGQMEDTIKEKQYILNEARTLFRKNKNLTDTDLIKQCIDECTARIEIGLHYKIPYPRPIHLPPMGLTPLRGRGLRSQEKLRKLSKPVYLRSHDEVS
UniProt Q9NX47: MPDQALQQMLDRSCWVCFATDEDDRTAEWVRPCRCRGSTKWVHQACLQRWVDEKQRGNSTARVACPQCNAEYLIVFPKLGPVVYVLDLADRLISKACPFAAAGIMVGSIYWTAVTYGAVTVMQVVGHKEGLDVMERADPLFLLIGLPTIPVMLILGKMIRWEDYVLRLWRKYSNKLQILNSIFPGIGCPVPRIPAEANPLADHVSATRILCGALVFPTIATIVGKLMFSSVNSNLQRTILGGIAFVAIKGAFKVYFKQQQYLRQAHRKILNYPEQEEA
UniProt P09960: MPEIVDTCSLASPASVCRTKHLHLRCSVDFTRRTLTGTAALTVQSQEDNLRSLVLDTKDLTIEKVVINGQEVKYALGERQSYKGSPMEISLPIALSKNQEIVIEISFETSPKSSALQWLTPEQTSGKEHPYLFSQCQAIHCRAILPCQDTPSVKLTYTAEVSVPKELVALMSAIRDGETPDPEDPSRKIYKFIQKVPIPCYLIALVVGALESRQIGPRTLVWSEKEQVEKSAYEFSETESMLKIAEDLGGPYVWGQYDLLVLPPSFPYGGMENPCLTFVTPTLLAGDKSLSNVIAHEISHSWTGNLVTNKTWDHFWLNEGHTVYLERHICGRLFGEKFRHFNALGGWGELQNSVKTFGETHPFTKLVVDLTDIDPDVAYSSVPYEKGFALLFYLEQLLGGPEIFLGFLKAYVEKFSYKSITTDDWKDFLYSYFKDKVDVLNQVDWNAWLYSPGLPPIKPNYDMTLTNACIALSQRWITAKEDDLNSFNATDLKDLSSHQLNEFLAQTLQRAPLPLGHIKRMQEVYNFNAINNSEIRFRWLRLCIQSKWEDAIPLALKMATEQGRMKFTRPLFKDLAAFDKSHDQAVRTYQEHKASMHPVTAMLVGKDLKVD

log2 fold change, inactive:
MAGT1 (UniProt Q9H0U3) -0.006, LRRFIP2 (UniProt Q9Y608) 0.018, MAN2A1 (UniProt Q16706) -0.023, MAPRE2 (UniProt Q15555) -0.204, MACROD1 (UniProt Q9BQ69) 0.162, LYRM7 (UniProt Q5U5X0) 0.009, MAGEC1 (UniProt O60732) -0.058, MAP1S (UniProt Q66K74) 0.017, MAN2C1 isoform 4 (UniProt Q9NTJ4) 0.044, LSM4 (UniProt Q9Y4Z0) 0.027, LSM7 (UniProt Q9UK45) -0.008, LSM8 (UniProt O95777) -0.053, MAP2K4 isoform 2 (UniProt P45985) 0.008, MAN2A2 (UniProt P49641) 0.045, LZTFL1 (UniProt Q9NQ48) 0.065, MACF1 (UniProt H3BQK9) -0.029, LYSMD1 (UniProt Q96S90) 0.029, MAP4 isoform 5 (UniProt P27816) 0.134, MAN2B1 (UniProt O00754) 0.024, MAP1B (UniProt P46821) -0.017, MAPRE1 (UniProt Q15691) 0.031, MACF1 (UniProt Q9UPN3) -0.032, LTF (UniProt P02788) -0.214, MAGEB2 (UniProt O15479) -0.521, MANBA (UniProt O00462) -0.024, MANF (UniProt P55145) -0.024, MARCHF3 (UniProt Q86UD3) 0.036, LYRM1 (UniProt O43325) 0.076, MAP7 isoform 7 (UniProt Q14244) -0.365, MARCHF5 (UniProt Q9NX47) 0.033, LTA4H (UniProt P09960) 0.004

compound: CCn1c(C(=O)N(C2CC2)C2CC2)cc2c3c(ncn3C)c(Nc3cc(C)n(C)n3)nc21; assay: as above
In short: as §1

log2 fold change, inactive:
MAGT1 (UniProt Q9H0U3) 0.045, LRRFIP2 (UniProt Q9Y608) -0.036, MAN2A1 (UniProt Q16706) -0.007, MAPRE2 (UniProt Q15555) -0.036, MACROD1 (UniProt Q9BQ69) -0.195, LYRM7 (UniProt Q5U5X0) 0.04, MAGEC1 (UniProt O60732) -0.065, MAP1S (UniProt Q66K74) -0.046, MAN2C1 isoform 4 (UniProt Q9NTJ4) -0.025, LSM4 (UniProt Q9Y4Z0) 0.017, LSM7 (UniProt Q9UK45) 0.038, LSM8 (UniProt O95777) 0.03, MAP2K4 isoform 2 (UniProt P45985) 0.004, MAN2A2 (UniProt P49641) -0.014, LZTFL1 (UniProt Q9NQ48) 0.014, MACF1 (UniProt H3BQK9) -0.014, LYSMD1 (UniProt Q96S90) -0.084, MAN2B1 (UniProt O00754) -0.023, MAP1B (UniProt P46821) -0.02, MAPRE1 (UniProt Q15691) 0.007, MACF1 (UniProt Q9UPN3) -0.03, LTF (UniProt P02788) -0.017, MAGEB2 (UniProt O15479) 0.016, MANBA (UniProt O00462) -0.009, MANF (UniProt P55145) 0.013, LYRM1 (UniProt O43325) 0.025, MAP7 isoform 7 (UniProt Q14244) -0.025, MARCHF5 (UniProt Q9NX47) -0.072, LTA4H (UniProt P09960) -0.004

compound: CCn1cc(-c2ccnc3[nH]c(-c4cccc(CN(C)C)c4)cc23)c(-c2ccc(NC(=O)N(C)C)cc2)n1; assay: as above
In short: as §1

log2 fold change, inactive:
MAGT1 (UniProt Q9H0U3) 0.003, LRRFIP2 (UniProt Q9Y608) -0.017, MAN2A1 (UniProt Q16706) 0.018, MAPRE2 (UniProt Q15555) 0.028, MACROD1 (UniProt Q9BQ69) -0.057, LYRM7 (UniProt Q5U5X0) 0.026, MAGEC1 (UniProt O60732) 0.021, MAP1S (UniProt Q66K74) 0.017, MAN2C1 isoform 4 (UniProt Q9NTJ4) 0.02, LSM4 (UniProt Q9Y4Z0) 0.017, LSM7 (UniProt Q9UK45) 0, LSM8 (UniProt O95777) -0.006, MAP2K4 isoform 2 (UniProt P45985) -0.019, MAN2A2 (UniProt P49641) 0.005, LZTFL1 (UniProt Q9NQ48) -0.039, MACF1 (UniProt H3BQK9) 0.006, LYSMD1 (UniProt Q96S90) -0.012, MAN2B1 (UniProt O00754) 0.068, MAP1B (UniProt P46821) 0.033, MAPRE1 (UniProt Q15691) -0.005, MACF1 (UniProt Q9UPN3) 0, LTF (UniProt P02788) -0.009, MAGEB2 (UniProt O15479) 0.131, MANBA (UniProt O00462) -0.007, MANF (UniProt P55145) 0.007, LYRM1 (UniProt O43325) -0.12, MAP7 isoform 7 (UniProt Q14244) 0.036, MARCHF5 (UniProt Q9NX47) -0.031, LTA4H (UniProt P09960) -0.057

— the supplement of paper PMC10849652
